Compound in the assay: Nc1ncnc2c1ncn2[C@@H]1O[C@H](COP(=O)(O)OP(=O)(O)NP(=O)(O)O)[C@@H](O)[C@H]1O [adenylyl imidodiphosphate]
As to the kind of experiment: NP40-soluble protein abundance relative to vehicle (solubility fold change) (ratio); higher = more soluble protein in presence of AMP-PNP. Summed up:
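Across three independent experiments, values are fold changes against the detergent-processed vehicle for each replicate, based on vsn-normalised intensities. The samples were Jurkat crude lysate treated with eight concentrations (0.1 to 10 mM) for 10 min at room temperature and then 3 min at 37 °C. Lysate was solubilised with 0.8% NP40 and benzonase, ultracentrifuged, and the supernatant analysed by TMT-labelled LC-MS/MS.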

Amino acid sequences for entries named in this document (tags omitted). A change or cut given only in a name is not applied to a line headed by its entry.
UniProt P63027, whole entry, looked up: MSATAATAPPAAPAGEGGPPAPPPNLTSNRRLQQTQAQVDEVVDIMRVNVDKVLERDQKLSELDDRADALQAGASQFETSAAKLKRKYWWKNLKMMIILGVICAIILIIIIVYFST
UniProt P19105: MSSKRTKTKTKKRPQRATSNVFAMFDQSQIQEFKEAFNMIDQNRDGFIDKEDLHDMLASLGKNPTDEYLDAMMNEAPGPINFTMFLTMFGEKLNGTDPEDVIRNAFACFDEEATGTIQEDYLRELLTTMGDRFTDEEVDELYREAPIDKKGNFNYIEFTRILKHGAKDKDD
UniProt O14950, whole entry, looked up: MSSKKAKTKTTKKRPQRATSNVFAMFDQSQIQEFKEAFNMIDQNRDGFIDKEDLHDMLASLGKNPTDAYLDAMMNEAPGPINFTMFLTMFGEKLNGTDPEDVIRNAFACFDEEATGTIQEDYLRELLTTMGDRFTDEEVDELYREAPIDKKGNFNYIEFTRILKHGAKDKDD
UniProt Q15643: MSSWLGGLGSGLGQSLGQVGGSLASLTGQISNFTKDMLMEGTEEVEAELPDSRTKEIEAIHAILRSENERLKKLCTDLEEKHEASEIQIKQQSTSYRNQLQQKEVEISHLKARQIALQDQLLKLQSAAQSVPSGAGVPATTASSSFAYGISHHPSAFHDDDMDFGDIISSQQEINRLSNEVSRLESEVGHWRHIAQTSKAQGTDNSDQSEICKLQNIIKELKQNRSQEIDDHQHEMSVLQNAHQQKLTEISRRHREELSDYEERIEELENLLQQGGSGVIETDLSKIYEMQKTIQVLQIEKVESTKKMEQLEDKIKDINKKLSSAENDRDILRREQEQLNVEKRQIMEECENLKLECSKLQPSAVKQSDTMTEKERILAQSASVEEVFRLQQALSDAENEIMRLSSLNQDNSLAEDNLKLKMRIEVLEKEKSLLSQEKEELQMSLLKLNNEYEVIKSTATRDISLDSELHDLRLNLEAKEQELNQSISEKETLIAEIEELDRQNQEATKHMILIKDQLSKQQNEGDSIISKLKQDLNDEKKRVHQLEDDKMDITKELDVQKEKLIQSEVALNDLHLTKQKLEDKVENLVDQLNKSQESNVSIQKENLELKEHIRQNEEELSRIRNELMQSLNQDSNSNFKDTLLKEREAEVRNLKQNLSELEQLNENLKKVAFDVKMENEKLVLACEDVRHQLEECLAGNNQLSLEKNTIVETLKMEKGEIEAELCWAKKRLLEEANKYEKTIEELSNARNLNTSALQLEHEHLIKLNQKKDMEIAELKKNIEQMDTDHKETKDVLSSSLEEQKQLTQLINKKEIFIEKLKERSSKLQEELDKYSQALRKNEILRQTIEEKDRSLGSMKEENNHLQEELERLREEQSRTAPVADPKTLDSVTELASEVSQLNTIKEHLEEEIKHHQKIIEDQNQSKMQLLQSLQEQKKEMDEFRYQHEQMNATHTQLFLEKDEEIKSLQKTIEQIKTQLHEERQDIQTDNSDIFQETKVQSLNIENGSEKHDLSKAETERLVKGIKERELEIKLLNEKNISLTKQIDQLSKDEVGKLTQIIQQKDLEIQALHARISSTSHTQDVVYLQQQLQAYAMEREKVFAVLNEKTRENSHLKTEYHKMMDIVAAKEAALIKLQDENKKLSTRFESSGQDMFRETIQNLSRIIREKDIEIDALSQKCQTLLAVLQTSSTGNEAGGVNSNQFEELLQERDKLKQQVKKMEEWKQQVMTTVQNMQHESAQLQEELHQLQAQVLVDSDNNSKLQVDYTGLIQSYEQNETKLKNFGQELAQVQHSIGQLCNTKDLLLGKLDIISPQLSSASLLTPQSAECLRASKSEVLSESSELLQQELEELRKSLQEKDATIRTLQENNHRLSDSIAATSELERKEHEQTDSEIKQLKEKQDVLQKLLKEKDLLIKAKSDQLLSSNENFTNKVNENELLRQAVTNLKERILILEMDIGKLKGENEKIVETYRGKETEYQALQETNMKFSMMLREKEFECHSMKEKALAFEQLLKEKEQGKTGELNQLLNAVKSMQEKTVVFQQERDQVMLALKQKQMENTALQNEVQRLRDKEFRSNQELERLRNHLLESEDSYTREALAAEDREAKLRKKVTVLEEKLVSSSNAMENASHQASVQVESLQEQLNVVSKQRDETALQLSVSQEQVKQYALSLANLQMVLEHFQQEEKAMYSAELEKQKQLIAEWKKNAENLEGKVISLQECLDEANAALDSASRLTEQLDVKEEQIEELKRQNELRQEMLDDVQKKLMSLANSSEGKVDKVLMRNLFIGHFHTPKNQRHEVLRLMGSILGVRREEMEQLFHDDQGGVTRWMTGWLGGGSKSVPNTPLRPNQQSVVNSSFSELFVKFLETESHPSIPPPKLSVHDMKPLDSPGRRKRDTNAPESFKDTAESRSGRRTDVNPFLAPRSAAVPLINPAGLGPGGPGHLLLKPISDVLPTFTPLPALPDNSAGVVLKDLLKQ
UniProt Q9GZP9: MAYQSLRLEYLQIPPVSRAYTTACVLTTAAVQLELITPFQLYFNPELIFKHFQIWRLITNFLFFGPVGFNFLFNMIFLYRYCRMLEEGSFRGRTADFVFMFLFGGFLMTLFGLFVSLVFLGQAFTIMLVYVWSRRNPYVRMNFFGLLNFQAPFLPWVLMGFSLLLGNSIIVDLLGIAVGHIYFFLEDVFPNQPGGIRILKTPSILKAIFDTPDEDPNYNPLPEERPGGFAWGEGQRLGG
UniProt Q96BT3, whole entry: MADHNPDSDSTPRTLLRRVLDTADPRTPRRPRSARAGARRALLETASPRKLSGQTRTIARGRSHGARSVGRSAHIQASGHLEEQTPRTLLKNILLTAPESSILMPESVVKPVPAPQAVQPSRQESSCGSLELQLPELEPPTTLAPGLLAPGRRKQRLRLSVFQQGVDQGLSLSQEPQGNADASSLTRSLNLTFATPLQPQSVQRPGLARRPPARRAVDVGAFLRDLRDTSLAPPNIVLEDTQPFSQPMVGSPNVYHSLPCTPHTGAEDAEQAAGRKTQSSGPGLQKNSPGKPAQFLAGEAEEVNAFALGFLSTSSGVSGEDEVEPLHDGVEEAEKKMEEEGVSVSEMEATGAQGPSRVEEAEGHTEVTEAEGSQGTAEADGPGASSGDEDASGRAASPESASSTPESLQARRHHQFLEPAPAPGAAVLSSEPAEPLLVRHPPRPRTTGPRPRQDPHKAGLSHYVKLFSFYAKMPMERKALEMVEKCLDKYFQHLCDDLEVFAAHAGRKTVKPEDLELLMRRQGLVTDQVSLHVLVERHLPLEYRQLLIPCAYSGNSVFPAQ
UniProt Q7Z4W1: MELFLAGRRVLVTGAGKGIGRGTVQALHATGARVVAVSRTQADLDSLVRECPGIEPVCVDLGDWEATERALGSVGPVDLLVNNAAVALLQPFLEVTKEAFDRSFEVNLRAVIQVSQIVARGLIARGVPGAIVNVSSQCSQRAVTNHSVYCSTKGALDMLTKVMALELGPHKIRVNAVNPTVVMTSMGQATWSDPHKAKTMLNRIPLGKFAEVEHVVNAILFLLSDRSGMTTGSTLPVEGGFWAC
UniProt P57678: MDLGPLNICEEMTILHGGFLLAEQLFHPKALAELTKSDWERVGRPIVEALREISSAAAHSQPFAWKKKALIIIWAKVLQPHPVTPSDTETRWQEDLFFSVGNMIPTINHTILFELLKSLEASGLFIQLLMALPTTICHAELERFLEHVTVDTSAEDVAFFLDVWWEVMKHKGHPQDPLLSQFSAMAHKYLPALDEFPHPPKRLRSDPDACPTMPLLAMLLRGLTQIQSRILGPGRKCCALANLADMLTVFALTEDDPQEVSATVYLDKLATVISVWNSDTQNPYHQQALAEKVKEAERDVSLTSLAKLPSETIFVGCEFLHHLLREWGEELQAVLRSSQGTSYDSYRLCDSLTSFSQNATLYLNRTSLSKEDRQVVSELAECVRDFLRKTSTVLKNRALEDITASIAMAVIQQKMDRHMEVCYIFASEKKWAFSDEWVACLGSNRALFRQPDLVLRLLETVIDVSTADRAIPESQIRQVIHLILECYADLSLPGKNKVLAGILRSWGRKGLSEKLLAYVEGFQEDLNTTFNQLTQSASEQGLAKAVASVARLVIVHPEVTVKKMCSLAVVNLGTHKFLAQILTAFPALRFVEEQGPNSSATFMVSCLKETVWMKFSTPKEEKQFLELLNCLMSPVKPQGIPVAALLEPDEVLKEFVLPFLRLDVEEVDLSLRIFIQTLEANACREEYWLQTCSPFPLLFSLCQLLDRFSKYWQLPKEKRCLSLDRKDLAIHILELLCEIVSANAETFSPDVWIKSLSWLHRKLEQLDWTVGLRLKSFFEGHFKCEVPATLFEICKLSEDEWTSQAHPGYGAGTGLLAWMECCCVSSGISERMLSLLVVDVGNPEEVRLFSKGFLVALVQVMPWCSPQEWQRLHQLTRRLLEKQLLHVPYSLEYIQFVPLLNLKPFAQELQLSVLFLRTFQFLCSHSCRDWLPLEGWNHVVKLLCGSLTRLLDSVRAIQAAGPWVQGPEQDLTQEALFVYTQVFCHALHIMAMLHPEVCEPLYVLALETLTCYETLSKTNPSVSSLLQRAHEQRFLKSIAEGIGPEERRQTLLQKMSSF
UniProt Q8N554: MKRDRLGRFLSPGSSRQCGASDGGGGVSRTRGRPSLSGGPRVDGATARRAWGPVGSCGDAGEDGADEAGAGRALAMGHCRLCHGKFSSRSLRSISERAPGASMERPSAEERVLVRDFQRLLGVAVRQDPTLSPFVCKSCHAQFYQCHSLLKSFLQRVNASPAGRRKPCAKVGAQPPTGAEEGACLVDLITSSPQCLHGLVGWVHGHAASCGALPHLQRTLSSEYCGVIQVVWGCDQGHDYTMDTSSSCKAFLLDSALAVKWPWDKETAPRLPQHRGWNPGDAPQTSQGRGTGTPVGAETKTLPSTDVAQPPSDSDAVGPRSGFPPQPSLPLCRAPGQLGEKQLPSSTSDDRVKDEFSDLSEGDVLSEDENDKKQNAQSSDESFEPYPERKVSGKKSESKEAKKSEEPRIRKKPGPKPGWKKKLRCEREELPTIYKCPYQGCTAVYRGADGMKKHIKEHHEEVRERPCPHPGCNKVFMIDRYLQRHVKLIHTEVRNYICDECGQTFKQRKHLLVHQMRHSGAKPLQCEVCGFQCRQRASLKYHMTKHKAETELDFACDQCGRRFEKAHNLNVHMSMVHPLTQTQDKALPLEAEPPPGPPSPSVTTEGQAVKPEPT
UniProt O43169: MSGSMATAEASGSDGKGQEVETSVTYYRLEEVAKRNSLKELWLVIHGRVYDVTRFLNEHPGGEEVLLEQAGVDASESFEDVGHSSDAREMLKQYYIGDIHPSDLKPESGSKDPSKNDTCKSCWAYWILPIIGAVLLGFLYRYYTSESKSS
UniProt Q9Y5A7: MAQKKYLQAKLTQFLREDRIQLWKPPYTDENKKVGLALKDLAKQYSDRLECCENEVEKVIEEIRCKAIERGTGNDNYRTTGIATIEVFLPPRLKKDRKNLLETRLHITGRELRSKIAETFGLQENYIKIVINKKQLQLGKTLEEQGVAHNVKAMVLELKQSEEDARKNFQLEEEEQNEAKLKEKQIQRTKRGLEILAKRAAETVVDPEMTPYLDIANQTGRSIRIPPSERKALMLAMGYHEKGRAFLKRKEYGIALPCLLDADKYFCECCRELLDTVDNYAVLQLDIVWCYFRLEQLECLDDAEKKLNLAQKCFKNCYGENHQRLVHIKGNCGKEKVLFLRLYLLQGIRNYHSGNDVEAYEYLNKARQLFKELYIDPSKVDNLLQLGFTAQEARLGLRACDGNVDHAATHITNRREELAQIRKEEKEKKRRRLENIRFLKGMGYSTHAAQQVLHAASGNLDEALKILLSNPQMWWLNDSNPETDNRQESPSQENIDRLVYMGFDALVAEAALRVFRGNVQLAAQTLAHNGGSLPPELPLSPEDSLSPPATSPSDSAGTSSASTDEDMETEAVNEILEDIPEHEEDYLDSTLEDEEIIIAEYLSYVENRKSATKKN
UniProt Q86VK4: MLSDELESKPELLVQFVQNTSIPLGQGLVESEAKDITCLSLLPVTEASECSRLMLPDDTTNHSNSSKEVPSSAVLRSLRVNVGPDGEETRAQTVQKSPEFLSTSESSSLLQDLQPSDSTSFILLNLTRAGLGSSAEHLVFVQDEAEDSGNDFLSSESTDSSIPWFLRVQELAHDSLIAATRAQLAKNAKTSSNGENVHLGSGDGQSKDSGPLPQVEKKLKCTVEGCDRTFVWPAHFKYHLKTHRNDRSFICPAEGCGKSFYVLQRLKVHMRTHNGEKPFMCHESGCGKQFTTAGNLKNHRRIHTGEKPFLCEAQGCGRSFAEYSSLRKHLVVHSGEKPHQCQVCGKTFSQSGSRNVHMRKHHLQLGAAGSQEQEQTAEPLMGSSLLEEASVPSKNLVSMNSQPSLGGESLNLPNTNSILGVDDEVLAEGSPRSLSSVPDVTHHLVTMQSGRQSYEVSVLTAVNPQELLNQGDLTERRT
UniProt Q8TDP1: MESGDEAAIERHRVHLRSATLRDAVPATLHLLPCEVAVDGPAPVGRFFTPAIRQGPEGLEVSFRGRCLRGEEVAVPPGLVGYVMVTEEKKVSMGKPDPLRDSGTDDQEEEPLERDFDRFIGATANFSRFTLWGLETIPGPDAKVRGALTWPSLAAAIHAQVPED

± gives the standard deviation of the averaged measurements. Only a part is listed here, and it is no random draw. Small differences around the control level are noise.

On to “J3QRU4 and related entries (UniProt P63027+L7N2F9+J3QRU4)”, for which the NP40-soluble protein abundance came out at 0.965 ± 0.028 (concentration: 0.1mM) and 0.995 ± 0.032 (concentration: 0.5mM).

Take “J3KNN5 and related entries (UniProt Q9UJV9)”: the NP40-soluble protein abundance (concentration: 0.1mM) was found to be 1.06 ± 0.026 and the NP40-soluble protein abundance (concentration: 0.5mM) was found to be 1.06 ± 0.027.

Turning to “H3BPZ0 and related entries (UniProt Q6PCT2)”, the NP40-soluble protein abundance stood at 1.02 ± 0.042 (concentration: 0.1mM) and 1.02 ± 0.036 (concentration: 0.5mM).

“J3QRS3 and related entries (UniProt P19105+O14950+J3QRS3)”: the NP40-soluble protein abundance runs as follows: (concentration: 0.1mM) 1.05 ± 0.07; (concentration: 0.5mM) 1.13 ± 0.087.

“H0YJI2 and related entries (UniProt Q15643)”: the NP40-soluble protein abundance is, setting by setting: (concentration: 0.1mM) 0.977 ± 0.032; (concentration: 0.5mM) 0.972 ± 0.025.

Turning to “I3L1T3 and related entries (UniProt Q9GZP9)”, the NP40-soluble protein abundance was found to be 1.02 ± 0.028 (concentration: 0.1mM) and 0.991 ± 0.029 (concentration: 0.5mM).

Consider “H7C4N2 and related entries (UniProt P13797)”, for which the NP40-soluble protein abundance is 0.999 ± 0.052 (concentration: 0.1mM) and 0.98 ± 0.034 (concentration: 0.5mM).

With “H3BTR4 and related entries (UniProt Q96BT3)”, the NP40-soluble protein abundance runs as follows: (concentration: 0.1mM) 1.02 ± 0.059; (concentration: 0.5mM) 1.05 ± 0.039.

As to “J3KS22 and related entries (UniProt Q7Z4W1)”, the NP40-soluble protein abundance worked out at 1.01 ± 0.031 (concentration: 0.1mM) and 1.02 ± 0.048 (concentration: 0.5mM).

On to “I3L2C7 and related entries (UniProt P57678)”, for which the NP40-soluble protein abundance turned out to be 1.08 ± 0.036 (concentration: 0.1mM) and 0.996 ± 0.073 (concentration: 0.5mM).

As for “H3BPT7 and related entries (UniProt Q8N554)”, the NP40-soluble protein abundance was 0.982 ± 0.0079 (concentration: 0.1mM) and 1.01 ± 0.032 (concentration: 0.5mM).

On to “J3KNF8 and related entries (UniProt O43169)”, for which the NP40-soluble protein abundance reads like this: (concentration: 0.1mM) 1.04 ± 0.11; (concentration: 0.5mM) 1.07 ± 0.12.

On to “H3BM14 and related entries (UniProt Q9Y5A7)”, for which the NP40-soluble protein abundance (concentration: 0.1mM) came out at 0.977 ± 0.022 and the NP40-soluble protein abundance (concentration: 0.5mM) was determined as 0.971 ± 0.01.

Consider “J3KNQ6 and related entries (UniProt Q86VK4)”, for which the NP40-soluble protein abundance was found to be 1.018 ± 0.0029 (concentration: 0.1mM) and 1.042 ± 0.0033 (concentration: 0.5mM).

As for “H0YEF3 and related entries (UniProt Q8TDP1)”, the NP40-soluble protein abundance worked out at 1.01 ± 0.026 (concentration: 0.1mM) and 1 ± 0.042 (concentration: 0.5mM).

The values are drawn from the supplement of paper PMC6411743.
